Laboratory results published in patent US20240218069A1.
These are yes or no findings as the source states them, for the method shown. Some entries that bind do so weakly or less than the wild type.

Target: T1, human B7H3 (human) (UniProt Q5ZPR3)
T1 sequence (looked up): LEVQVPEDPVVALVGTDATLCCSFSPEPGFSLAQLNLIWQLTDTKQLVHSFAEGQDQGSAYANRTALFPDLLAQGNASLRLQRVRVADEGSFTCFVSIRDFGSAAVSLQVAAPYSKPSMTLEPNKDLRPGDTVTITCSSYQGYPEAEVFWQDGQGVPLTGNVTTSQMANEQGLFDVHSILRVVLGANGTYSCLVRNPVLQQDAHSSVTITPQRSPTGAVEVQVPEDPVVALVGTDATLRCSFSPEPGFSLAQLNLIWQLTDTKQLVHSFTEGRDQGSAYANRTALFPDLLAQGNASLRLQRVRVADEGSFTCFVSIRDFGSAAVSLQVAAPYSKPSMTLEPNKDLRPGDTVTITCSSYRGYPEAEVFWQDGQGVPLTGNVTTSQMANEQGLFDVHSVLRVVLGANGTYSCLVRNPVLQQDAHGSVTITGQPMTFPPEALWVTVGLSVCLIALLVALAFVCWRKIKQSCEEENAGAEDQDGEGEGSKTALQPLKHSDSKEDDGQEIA
Assay: FACS on CHO cells over-expressing human B7H3

B1: Ly1442 (antibody, human IgG1, kappa, V domains shown)
VH: QVQLVQSGAEVKKPGASVKVSCKASGYTFTSYWMHWVRQAPGQGLEWMGMIHPNSGGTNYNEKFKGRVTMTRDTSISTAYMELSRLRSDDTAVYYCARSQATWFAYWGQGTLVTVSS
VL: EIVLTQSPATLSLSPGERATLSCRASSSVSSSYLHWYQQKPGQAPRLLIYSTSNLASGIPARFSGSGSGTDFTLTISSLEPEDFAVYYCQHYSGYPLTFGGGTKVEIKR
binding: binds

B2: Ly383 (antibody, human IgG1, kappa, V domains shown)
VH: EVQLQQSGPELVKPGASVKMSCKASGYTFTSYVMHWVKQKPGQGLEWIGYINPYNDGTECTDKFKGKATLTSDKSSSTAYMELSSLTSEDSAVYYCASIYYGYDGTYFGVWGAGTSVTVSS
VL: QIVLSQSPAILSTSPGEKVTMTCRASSSVSYMHWYQQKPGSSPKPWIYATSNLASGVPARFSGSRSGTSYSLTISRVEAEDAATYYCQQWSSNTLTFGGGTKLELKR
binding: binds

B3: Ly387 (antibody, human IgG1, kappa, V domains shown)
VH: QVQLQQPGAELVKPGASVKLSCKASGYTFTSYWMHWVKQRPGQGLEWIGMIHPNSGGTNYNEKFKGKGTLTVDKSSSTAYMQLSSLTSDDSAVYYCVTSQATWFAYWGQGTLVTVSA
VL: ENVLTQSPAIMSVSPGEKVTMTCRASSSVSSSYLHWYQQKSGASPKFWIYSTSNLASGVPARFSGSGSGTSYSLTISSVEAEDAATYYCQHYSGYPLTFGAGTKLELRR
binding: binds
